From PubChem BioAssay AID540303 (National Center for Advancing Translational Sciences (NCATS), 2011)
Out of some 330,000 compounds screened, about 1,000 (0.3%) were called active. Inconclusive means that the source gave no clear call. Such entries were picked first, then a sample of the others. Calls follow the shape of the dose curve; as a rule, active = well fitted inhibition curve with a large enough effect; inconclusive = small, poorly fitted or top-dose-only effect; inactive = no such curve, though single readings can be large or run the other way; tested in mouse RAW 264.7 cells. Where the call is inconclusive, the potency comes from a doubtful curve fit.

Test: qHTS for Inhibitors of Cell Surface uPA Generation; also: nearly all actives have a fitted effect of over 55% in size
Settings: cell surface uPA generation assay; series mostly up to 38.3 µM
Procedure, shortened: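 Murine RAW 264.7 cells are treated for 24 h with compound up to 38.3 uM final. Cell ATP, measured by ATP-Lite, remains high if blocking the uPA cascade prevents LF from reaching the cytoplasm.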
Potency is read from the fitted curve at half-maximal effect.

Structure (SMILES) | Potency
COc1ccc(N/C=C2\CCc3ccccc3C2=O)cc1 | active: 1.26 µM
O=C(COc1ccc(Cl)cc1Cl)N/N=C/c1ccccn1 | inconclusive: 7.94 µM [inhibitor, single point]
O=C(Nc1ccc(F)c([N+](=O)[O-])c1)c1cccs1 | inconclusive: 5.01 µM [inhibitor, partial curve, poor fit]
Cc1nc2ccccc2nc1N/N=C/c1ccc(O)cc1 | inconclusive: 3.16 µM [inhibitor, full curve]
Cc1cc(Cl)ccc1OCC(=O)OCC(=O)N1CCC(C(N)=O)CC1 | inconclusive: 2.82 µM [inhibitor, single point]
CCOC(=O)Cc1ccc(NC(=O)c2ccc(C(C)(C)C)cc2)cc1 | inactive
CCCc1cc(=O)[nH]c(SCC(=O)Nc2cccc(S(=O)(=O)N3CCCCC3)c2)n1 | inconclusive: 28.2 µM [inhibitor, single point]
CCS(=O)(=O)N1CCN(c2ccc(C(=O)NC34CC5CC(CC(C5)C3)C4)cc2[N+](=O)[O-])CC1 | inactive
COc1ccc(CN(C)C(C)C(=O)Nc2ccc(S(=O)(=O)N3CCCCC3)cc2)cc1F (configuration not stated) | inconclusive: 4.47 µM [inhibitor, partial curve]
Cc1ccc(S(=O)(=O)N2CCN(C(=O)c3ccccc3OCc3c(C)noc3C)CC2)cc1 | inconclusive: 12.6 µM [inhibitor, single point]
Cc1c(C(=O)Nc2ccc(-c3nnc4n3CCCCC4)cc2)oc2ccc(Br)cc12 | inconclusive: 28.2 µM [inhibitor, single point]
O=C(Nc1ccc(CN2CCOCC2)cc1)c1ccc(-c2cccc([N+](=O)[O-])c2)o1 | inconclusive: 10 µM [inhibitor, single point]
COc1ccc(CC(NC(C)=O)C(=O)NC2CCN(S(=O)(=O)c3ccc(NC(C)=O)cc3)CC2)cc1OC (configuration not stated) | inactive
CC1CCCN(S(=O)(=O)c2ccc(C(=O)NC(C)c3ccccc3)cc2)C1 (configuration not stated) | inconclusive: 2.82 µM [inhibitor, full curve]
CCc1nn(C(CC)C(=O)NCc2cccc(OC)c2OC)c(=O)c2cc3occc3n12 (configuration not stated) | inconclusive: 12.6 µM [inhibitor, single point]
COc1ccc(C(=O)C2CCCN(C(=O)CCc3scnc3C)C2)c(C)c1 (configuration not stated) | inactive
CC(C)(C)OC(=O)N(Cc1ccccc1)Cc1ccccc1OCc1ccc(NC(=O)C2CCC2)cc1 | inconclusive: 22.4 µM [inhibitor, single point]
C=CCn1c(SCC(=O)c2ccc(O)c(O)c2)nnc1-c1ccc(OC)cc1 | inconclusive: 3.98 µM [inhibitor, partial curve]
Cc1cccc(C(=O)Nc2sc(C)c(-c3ccccc3)c2C#N)c1 | inactive
COc1ccc(NC(=O)NC2CCCCCCC2)cc1 | inconclusive: 2.51 µM [inhibitor, partial curve, poor fit]
COc1cc(C(=O)NCC(c2ccccc2)N(C)C)ccc1OCc1c(C)noc1C (configuration not stated) | active: 7.94 µM

Single entries from the list:
Entry of Cc1cc(Cl)ccc1OCC(=O)OCC(=O)N1CCC(C(N)=O)CC1 under Potency: inconclusive: 2.82 µM [inhibitor, single point]
Entry of CC1CCCN(S(=O)(=O)c2ccc(C(=O)NC(C)c3ccccc3)cc2)C1 (configuration not stated) under Potency: inconclusive: 2.82 µM [inhibitor, full curve]

The list continues.

Structure (SMILES) | Potency
Cc1ccc(C(=O)N(c2ccccc2)C2CC(C)N(C(=O)c3ccco3)c3ccccc32)cc1 (configuration not stated) | inactive
CC(=O)N1CCN(C(=O)c2cccc(S(=O)(=O)N3CCOCC3)c2)CC1 | inactive
CCCOc1ccc(-c2nc(N3CCN(CC)CC3)c3ccccc3n2)cc1 | inconclusive: 28.2 µM [inhibitor, single point]
COc1ccc(-n2c(N)cc(=O)nc2SCC(=O)N2CCN(c3ccccc3)CC2)cc1 | inconclusive: 1 µM [inhibitor, partial curve, poor fit]
O=C(O)c1ccc(C(=O)Nc2cccc3ccccc23)c(C(=O)O)c1 | inconclusive: 5.01 µM [inhibitor, partial curve]
Cc1cc2nc(-c3cccc(NC(=O)c4ccc(Br)o4)c3C)oc2cc1C | inconclusive: 11.2 µM [inhibitor, partial curve, poor fit]
CN(CCOc1ccccc1Cl)Cc1ccccc1 | inconclusive: 12.6 µM [inhibitor, partial curve, poor fit]
CC(C)OCCCNc1nc(-c2ccccc2)nc2ccccc12 | inconclusive: 12.6 µM [inhibitor, single point]
O=C1[C@H](Oc2ccccc2)[C@@H](c2ccccc2)N1c1ccncc1 | inconclusive: 8.91 µM [inhibitor, partial curve]
COc1ccc(N2CC(C(=O)N3CCN(c4ccccc4)CC3)CC2=O)cc1 (configuration not stated) | inactive
C/C(=N\Nc1c(Cl)c(Cl)nc(C(=O)O)c1Cl)c1ccc(O)cc1 | inactive
COc1ccc2sc(N(CCN(C)C)C(=O)/C=C/c3cccs3)nc2c1 | inconclusive: 10 µM [inhibitor, partial curve, poor fit]
COc1ccccc1NC(=O)CN1CCN(CC(=O)Nc2cc(NC(C)=O)ccc2OC)CC1 | inactive
CCc1ccccc1N1CN(Cc2cccnc2)CNC1=S | inconclusive: 7.94 µM [inhibitor, partial curve, poor fit]
O=C(CN1c2ccccc2Sc2ccccc21)N/N=C/c1ccc([N+](=O)[O-])cc1 | inactive
COCCN(CC(=O)Nc1cccc(C)c1C)C(=O)c1ccc(S(=O)(=O)N2CCOCC2)cc1 | inconclusive: 10 µM [inhibitor, partial curve, poor fit]
O=S(=O)(Nc1ccc(O)c2ccccc12)c1ccc(F)cc1 | inconclusive: 4.47 µM [inhibitor, partial curve, poor fit]
CNc1nc(Nc2ccc([N+](=O)[O-])cc2)nc(OCC(F)(F)F)n1 | inconclusive: 0.316 µM [inhibitor, full curve, poor fit]
COc1ccc(CN2C(=O)C(C)Nc3ncnc(N4CCOCC4)c32)cc1 (configuration not stated) | inconclusive: 7.94 µM [inhibitor, single point]
CS(=O)(=O)c1nc(-c2ccccc2)c(-c2ccccc2)[nH]1 | inactive
O=C(Nc1nc2ccccc2s1)c1cc(-c2ccccc2)nn1-c1ccccc1 | inconclusive: 28.2 µM [inhibitor, single point]
